# Results: patent publication US20150031754
# By UniProt entry, the sequences of proteins in these tests, tags left out.
# UniProt P03372, whole entry: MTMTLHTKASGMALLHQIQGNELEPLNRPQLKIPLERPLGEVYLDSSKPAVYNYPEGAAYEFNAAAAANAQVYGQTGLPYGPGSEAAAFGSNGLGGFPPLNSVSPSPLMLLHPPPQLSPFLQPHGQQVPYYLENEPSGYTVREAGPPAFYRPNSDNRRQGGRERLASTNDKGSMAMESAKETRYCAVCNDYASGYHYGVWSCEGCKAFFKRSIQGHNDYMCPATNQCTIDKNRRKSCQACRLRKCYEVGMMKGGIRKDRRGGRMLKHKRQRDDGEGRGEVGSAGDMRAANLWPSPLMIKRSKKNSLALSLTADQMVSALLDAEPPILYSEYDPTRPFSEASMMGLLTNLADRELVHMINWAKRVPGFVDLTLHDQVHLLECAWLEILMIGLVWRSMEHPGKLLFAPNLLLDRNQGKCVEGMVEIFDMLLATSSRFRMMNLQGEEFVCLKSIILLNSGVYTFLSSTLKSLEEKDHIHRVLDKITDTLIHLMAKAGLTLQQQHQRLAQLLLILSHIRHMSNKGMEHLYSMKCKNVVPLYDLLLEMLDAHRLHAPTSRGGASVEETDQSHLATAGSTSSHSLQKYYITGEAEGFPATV
# For some assays here: A weaker result is weaker than the reference pair of the same experiment. For some assays here: The exact form of at least one protein or probe is not confirmed. For some assays here: Results from cells or extracts need not show a direct contact. For some assays here: The direction of at least one scale is not stated here.
# Columns and labels:
# SNAP-hERα (Homo sapiens) = SNAP-hERα (Homo sapiens) (UniProt P03372); assay: pull-down; conditions: protein in cells; protein details: N-terminal SNAP-tag, expressed in HeLa cells; variant of AptER-1x2(138nt) dimer
# [1] = molecular target: Endogenous hERα in MCF7 cells (Homo sapiens) (UniProt P03372); assay: activity in cells; conditions: MCF7 dual luciferase, protein in cells, dose not given here
# [2] = molecular target: Human estrogen receptor alpha (hERα), full-length, unliganded (Homo sapiens) (UniProt P03372); assay: EMSA; conditions: 25 nM hERα; lower affinity than sB63; purified recombinant protein; label: 32P internal; variant of AptER-1(65nt) (sB63)
sequence,measurement,setting,value
GCGUGACGGGCACCGCGAACAAAACGCAAGACAGAGUGCCGACAAGAGCACUACAAGCCCGUCCAUACUCCGGCACCGCGAACAAAACGCAAGACAGAGUGCCGACAAGAGCACUAACAGCCGGAGGCGCUU [AptER-1x2 (expressed dimer)],binding signal (fold over SNAP control),SNAP-hERα (Homo sapiens),292
same,functional effect of the aptamer,"[1]; range for three aptamers from pSUPER/pSHAG-MAGIC, most potent of the three, variant of AptER-1x2(138nt) dimer",active
GAGAAUUCAACUGCCAUCUAGGCCACAGCCGGCGGUCGAACACCAGAGGGCGACUUUGGGUAGUCGAGUAUUAAGUACUACAAGCUUCUGGACUCUU [AptER-4 (97nt expressed)],functional effect of the aptamer,"[1]; range for three aptamers, least potent, variant of AptER-4",active
GAGAGGCACCGCGAACAAAACGCAAGACAGAGUGCCGACAAGAGCACUACAAGCCUCUCUU [AptER-1x1 (61nt expressed)],functional effect of the aptamer,"[1]; range for three aptamers, second most potent, variant of AptER-1 (clone B63)",active
GGGCAGAGGCACCGCGAACACAACGCAAGACAGAGUGACGACAAGAGCACUACAAGCUUCUGCCC [sB30 (65nt truncated clone B30)],binding result,[2],binds more weakly
